The results in this text go back to paper PMC8961594.

The chains behind the UniProt entries cited, without tags or fusion partners. Where a name states a change or a piece, a line headed by the entry shows the natural chain unless it says otherwise.
UniProt P55085: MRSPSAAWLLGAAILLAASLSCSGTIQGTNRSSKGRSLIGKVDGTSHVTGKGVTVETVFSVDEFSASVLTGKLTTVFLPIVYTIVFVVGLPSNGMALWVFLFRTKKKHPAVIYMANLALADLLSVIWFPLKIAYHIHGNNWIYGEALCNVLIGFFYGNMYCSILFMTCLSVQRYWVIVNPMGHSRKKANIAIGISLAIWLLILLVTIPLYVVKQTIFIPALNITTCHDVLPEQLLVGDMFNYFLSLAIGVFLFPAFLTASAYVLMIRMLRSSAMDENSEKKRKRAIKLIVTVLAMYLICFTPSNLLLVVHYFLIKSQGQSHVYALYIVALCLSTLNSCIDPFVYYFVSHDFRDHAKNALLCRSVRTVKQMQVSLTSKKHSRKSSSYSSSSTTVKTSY
UniProt Q96CW1: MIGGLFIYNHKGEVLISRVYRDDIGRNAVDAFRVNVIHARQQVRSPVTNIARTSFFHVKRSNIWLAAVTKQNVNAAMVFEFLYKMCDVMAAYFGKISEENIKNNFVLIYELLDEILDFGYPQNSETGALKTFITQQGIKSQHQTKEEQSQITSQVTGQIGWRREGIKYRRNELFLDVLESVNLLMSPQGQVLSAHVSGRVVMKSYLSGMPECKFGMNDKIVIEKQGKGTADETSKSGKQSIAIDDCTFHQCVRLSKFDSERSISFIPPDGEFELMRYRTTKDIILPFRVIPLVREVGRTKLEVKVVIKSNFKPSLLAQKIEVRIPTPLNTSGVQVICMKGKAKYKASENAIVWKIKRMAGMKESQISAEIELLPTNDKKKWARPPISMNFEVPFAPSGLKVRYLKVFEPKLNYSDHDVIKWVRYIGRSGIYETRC
UniProt P06733: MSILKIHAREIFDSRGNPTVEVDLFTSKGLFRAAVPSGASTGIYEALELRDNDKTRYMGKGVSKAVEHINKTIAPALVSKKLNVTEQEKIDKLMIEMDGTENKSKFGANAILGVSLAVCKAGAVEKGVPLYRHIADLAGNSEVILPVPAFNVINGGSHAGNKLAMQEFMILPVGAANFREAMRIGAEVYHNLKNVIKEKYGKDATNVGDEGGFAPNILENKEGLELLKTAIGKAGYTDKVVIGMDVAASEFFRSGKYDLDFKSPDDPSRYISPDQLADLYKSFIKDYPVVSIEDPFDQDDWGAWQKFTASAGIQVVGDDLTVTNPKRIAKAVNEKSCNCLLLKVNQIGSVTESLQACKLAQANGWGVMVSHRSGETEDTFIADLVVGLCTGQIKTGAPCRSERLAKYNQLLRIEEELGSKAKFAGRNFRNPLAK

These are yes or no findings as the source states them, for the method shown. In cells and extracts the contact can be indirect.

For this assay, the target named is Protease-Activated Receptor 2 (PAR2) (human (endogenous in HUVEC)) (UniProt P55085). Description: co-IP; HUVEC lysates (untreated or Plg-treated) precleared, incubated with antibody to PAR1 or PAR2 or control IgG 4 h at 4 °C, Protein A/G PLUS beads overnight at 4 °C; immunoblot for AP2µ or ENO-1. For orientation: In western blotting, separated proteins are transferred to a membrane and probed.

Turning to “clathrin adaptor protein AP2µ (from UniProt Q96CW1 1-435)”, the binding entry is on record as “no binding”.

On to “Enolase-1 (ENO-1) (from UniProt P06733 1-434)”, for which the binding entry was “no binding”.
